In the supplement of paper PMC12823440, “Inhibitors supercharge kinase turnover through native proteolytic circuits” (Nature, 2025):
The other results are listed elsewhere or left out. Hit calls seldom repeat between salt and free forms of one compound.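 Kinases were expressed as nanoluciferase fusions in K562 cells and luminescence was read every 4 h between 2 and 18 h as percent of control, DMSO set to 100% and a positive control to 0%. A time point counts as decreased when the signal drops significantly (2 sigma). The hit call is the authors' own, does not follow from the count of time points alone, and its rule is not shown.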

By UniProt entry, the sequences of proteins in these tests, tags left out. Where a name states a change or a piece, a line headed by the entry shows the natural chain unless it says otherwise.
UniProt P49137, whole entry, looked up: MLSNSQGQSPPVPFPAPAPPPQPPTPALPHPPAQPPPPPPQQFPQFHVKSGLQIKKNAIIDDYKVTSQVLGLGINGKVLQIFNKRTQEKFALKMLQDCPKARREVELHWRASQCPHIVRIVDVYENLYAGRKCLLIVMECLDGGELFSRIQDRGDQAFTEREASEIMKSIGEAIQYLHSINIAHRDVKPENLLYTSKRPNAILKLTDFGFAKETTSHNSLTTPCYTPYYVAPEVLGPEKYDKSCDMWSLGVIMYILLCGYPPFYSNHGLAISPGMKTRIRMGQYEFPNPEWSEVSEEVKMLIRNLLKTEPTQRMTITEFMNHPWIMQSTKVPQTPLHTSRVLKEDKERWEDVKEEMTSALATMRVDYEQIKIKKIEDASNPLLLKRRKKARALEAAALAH
UniProt Q16620, whole entry, looked up: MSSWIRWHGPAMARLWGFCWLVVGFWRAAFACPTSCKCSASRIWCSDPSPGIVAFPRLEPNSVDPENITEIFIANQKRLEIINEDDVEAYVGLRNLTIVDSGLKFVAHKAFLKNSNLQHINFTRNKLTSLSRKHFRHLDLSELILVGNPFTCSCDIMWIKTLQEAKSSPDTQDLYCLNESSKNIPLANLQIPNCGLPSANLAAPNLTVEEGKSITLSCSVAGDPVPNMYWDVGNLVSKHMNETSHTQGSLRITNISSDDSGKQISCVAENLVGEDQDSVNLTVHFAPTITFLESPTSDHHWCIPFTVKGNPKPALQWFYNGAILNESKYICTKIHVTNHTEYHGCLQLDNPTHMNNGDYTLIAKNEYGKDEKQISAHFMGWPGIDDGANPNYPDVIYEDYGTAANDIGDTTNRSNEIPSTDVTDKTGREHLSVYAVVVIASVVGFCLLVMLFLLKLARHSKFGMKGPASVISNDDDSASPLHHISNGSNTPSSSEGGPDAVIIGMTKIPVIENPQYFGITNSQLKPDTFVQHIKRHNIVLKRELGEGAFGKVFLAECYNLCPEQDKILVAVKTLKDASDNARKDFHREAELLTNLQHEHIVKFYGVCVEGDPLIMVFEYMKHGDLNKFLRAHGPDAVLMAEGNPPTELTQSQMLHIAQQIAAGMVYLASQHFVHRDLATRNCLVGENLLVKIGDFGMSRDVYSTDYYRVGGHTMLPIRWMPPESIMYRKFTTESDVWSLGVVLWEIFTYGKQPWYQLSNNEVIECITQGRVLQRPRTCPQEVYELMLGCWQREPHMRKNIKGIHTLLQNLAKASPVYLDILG
UniProt Q16288, whole entry, looked up: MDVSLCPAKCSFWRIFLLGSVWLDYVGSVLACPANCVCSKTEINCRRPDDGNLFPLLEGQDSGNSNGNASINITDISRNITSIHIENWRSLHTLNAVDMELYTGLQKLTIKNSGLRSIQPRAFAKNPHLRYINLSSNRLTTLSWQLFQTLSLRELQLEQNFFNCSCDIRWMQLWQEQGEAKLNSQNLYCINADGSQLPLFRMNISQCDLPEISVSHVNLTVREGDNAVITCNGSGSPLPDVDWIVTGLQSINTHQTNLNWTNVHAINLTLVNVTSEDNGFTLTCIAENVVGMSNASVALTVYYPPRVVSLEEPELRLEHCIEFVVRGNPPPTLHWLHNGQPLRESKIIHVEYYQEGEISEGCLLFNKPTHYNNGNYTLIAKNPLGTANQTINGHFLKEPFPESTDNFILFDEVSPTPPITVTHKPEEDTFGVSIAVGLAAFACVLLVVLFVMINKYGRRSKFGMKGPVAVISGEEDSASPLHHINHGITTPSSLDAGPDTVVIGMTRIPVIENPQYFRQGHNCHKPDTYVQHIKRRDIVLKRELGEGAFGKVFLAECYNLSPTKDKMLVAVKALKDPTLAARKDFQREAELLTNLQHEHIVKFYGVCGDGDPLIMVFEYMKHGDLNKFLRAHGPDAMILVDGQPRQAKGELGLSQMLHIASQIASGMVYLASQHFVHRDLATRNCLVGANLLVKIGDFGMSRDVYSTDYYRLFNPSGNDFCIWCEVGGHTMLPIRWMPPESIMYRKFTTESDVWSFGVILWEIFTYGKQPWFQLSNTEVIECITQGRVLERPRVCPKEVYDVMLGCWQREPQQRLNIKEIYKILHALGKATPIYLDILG
UniProt O96013: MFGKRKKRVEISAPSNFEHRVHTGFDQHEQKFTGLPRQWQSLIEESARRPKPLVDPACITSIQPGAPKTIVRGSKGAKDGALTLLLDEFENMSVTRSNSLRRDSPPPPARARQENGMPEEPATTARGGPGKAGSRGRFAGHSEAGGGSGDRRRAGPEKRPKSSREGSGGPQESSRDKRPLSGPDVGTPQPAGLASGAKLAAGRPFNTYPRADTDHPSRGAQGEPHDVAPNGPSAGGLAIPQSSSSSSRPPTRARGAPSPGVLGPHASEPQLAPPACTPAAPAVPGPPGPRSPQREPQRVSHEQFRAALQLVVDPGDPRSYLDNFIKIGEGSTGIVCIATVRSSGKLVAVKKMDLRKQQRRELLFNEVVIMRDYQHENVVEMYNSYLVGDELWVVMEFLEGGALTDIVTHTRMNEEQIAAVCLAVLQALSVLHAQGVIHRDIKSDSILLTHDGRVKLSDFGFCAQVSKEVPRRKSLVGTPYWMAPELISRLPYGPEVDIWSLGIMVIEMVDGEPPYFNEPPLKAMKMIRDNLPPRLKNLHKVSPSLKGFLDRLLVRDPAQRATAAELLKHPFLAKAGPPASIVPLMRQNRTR
UniProt Q96KB5: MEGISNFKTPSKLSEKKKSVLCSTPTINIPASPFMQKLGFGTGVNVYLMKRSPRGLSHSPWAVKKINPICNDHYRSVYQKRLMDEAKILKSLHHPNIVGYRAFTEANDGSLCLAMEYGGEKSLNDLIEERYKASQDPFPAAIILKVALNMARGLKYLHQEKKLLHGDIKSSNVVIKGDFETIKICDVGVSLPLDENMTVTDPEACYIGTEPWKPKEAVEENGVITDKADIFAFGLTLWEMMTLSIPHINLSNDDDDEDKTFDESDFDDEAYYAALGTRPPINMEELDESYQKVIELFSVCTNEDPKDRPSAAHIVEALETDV
UniProt Q15118, whole entry, looked up: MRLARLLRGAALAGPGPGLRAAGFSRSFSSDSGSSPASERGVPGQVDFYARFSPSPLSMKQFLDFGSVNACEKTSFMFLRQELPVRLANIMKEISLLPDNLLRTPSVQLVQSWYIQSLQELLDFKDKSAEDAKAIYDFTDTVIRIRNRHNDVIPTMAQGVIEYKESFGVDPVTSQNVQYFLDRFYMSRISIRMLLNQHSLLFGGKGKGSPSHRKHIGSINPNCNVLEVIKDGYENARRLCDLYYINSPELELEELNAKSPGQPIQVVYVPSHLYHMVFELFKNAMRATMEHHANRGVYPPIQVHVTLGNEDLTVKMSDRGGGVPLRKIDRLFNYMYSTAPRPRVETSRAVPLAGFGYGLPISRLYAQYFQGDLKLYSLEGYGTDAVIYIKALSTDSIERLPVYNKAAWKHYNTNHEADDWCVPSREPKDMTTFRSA
UniProt O15530: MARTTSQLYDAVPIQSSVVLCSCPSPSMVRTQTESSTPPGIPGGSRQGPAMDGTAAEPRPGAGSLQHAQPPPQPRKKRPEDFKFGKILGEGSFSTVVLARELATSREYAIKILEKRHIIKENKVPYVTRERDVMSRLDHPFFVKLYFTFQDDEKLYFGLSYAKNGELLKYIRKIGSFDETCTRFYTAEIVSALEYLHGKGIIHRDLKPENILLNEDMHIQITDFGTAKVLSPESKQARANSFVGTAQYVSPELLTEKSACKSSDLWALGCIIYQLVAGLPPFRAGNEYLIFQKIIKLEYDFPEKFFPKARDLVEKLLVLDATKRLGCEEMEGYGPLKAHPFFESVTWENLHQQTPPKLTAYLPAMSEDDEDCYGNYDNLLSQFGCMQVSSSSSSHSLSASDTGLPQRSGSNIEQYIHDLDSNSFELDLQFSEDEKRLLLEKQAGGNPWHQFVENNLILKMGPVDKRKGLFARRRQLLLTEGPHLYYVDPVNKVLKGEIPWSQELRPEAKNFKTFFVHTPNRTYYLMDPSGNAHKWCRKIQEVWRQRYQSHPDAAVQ
UniProt P53350, whole entry: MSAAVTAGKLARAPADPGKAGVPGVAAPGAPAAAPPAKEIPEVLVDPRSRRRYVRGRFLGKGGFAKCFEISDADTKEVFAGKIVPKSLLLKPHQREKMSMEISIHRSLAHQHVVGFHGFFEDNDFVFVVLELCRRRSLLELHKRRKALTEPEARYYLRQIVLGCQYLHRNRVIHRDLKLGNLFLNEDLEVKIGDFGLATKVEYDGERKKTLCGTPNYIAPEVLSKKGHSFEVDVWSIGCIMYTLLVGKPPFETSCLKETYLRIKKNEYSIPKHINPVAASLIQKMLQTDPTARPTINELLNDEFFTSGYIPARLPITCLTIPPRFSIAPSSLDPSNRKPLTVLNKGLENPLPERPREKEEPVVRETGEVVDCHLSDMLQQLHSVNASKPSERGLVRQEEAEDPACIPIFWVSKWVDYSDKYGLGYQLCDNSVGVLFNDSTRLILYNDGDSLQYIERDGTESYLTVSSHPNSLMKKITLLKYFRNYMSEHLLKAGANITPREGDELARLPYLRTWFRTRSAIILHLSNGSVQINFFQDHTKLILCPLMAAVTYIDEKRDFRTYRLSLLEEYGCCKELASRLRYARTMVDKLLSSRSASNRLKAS
UniProt Q14289, whole entry, looked up: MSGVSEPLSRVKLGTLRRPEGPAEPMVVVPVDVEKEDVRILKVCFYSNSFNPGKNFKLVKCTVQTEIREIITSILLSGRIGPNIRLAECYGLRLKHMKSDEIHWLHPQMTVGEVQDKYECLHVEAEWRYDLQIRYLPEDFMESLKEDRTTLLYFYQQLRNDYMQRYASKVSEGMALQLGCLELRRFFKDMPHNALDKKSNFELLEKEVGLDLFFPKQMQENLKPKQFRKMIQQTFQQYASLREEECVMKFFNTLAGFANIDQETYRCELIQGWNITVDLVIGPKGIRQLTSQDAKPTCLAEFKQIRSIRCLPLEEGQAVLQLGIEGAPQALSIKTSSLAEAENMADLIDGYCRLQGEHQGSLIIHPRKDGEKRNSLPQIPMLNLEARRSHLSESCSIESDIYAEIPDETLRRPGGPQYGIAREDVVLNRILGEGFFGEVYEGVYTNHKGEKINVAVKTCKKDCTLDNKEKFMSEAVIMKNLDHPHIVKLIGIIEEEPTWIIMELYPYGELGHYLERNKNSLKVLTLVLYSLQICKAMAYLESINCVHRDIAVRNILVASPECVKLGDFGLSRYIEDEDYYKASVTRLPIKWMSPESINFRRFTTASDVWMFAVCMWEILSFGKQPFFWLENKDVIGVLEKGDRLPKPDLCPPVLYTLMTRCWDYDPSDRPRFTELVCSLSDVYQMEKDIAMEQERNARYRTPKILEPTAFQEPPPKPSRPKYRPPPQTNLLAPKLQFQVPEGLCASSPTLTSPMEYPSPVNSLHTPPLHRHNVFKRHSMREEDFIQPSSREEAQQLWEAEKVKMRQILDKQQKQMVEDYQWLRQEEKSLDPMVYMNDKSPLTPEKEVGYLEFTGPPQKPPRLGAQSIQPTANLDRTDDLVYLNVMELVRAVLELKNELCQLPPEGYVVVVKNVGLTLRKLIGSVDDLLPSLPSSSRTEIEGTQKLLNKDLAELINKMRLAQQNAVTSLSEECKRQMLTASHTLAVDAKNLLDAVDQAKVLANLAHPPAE

Key:
Experiment in all cases: kinase-Nluc reporter destabilization hit call (1 = scored as downregulated) (binary); higher = compound decreases kinase abundance
Settings in all cases: K562; 2-18 h
MAPK1 = MAPK1 (UniProt P28482)
MAPK4 = MAPK4 (UniProt P31152)
MAPKAPK2 = MAPKAPK2 (UniProt P49137)
MKNK1 = MKNK1 (UniProt Q9BUB5)
NTRK2 = NTRK2 (UniProt Q16620)
NTRK3 = NTRK3 (UniProt Q16288)
PAK4 = PAK4 (UniProt O96013)
PBK = PBK (UniProt Q96KB5)
PDGFRB = PDGFRB (UniProt P09619)
PDK1 = PDK1 (UniProt Q15118)
PDPK1 = PDPK1 (UniProt O15530)
PIK4CA = PIK4CA (UniProt P42356)
PIK4CB = PIK4CB (UniProt Q9UBF8)
PLK1 = PLK1 (UniProt P53350)
PRKAA1 = PRKAA1 (UniProt Q13131)
PRKCA = PRKCA (UniProt P17252)
PTK2 = PTK2 (UniProt Q05397)
PTK2B = PTK2B (UniProt Q14289)
RAF1 = RAF1 (UniProt P04049)
[1] = target: RAF1_S257L (clone: RAF1_mut) (UniProt P04049)

| SMILES | kinase-Nluc reporter destabilization hit call (MAPK1) | kinase-Nluc reporter destabilization hit call (MAPK4) | kinase-Nluc reporter destabilization hit call (MAPKAPK2) | kinase-Nluc reporter destabilization hit call (MKNK1) | kinase-Nluc reporter destabilization hit call (NTRK2) | kinase-Nluc reporter destabilization hit call (NTRK3) | kinase-Nluc reporter destabilization hit call (PAK4) | kinase-Nluc reporter destabilization hit call (PBK) | kinase-Nluc reporter destabilization hit call (PDGFRB) | kinase-Nluc reporter destabilization hit call (PDK1) | kinase-Nluc reporter destabilization hit call (PDPK1) | kinase-Nluc reporter destabilization hit call (PIK4CA) | kinase-Nluc reporter destabilization hit call (PIK4CB) | kinase-Nluc reporter destabilization hit call (PLK1) | kinase-Nluc reporter destabilization hit call (PRKAA1) | kinase-Nluc reporter destabilization hit call (PRKCA) | kinase-Nluc reporter destabilization hit call (PTK2) | kinase-Nluc reporter destabilization hit call (PTK2B) | kinase-Nluc reporter destabilization hit call (RAF1) | kinase-Nluc reporter destabilization hit call [1] |
| --- | --- | --- | --- | --- | --- | --- | --- | --- | --- | --- | --- | --- | --- | --- | --- | --- | --- | --- | --- | --- |
| O=C(O)c1cc(N(Cc2ccccc2O)Cc2cc(O)ccc2O)ccc1O [Lavendustin A] (10 µM) | inactive: 0 | inactive: 0 | inactive: 0 | inactive: 0 | inactive: 0 | inactive: 0 | inactive: 0 | inactive: 0 | inactive: 0 | inactive: 0 | inactive: 0 | inactive: 0 | inactive: 0 | inactive: 0 | inactive: 0 | inactive: 0 | inactive: 0 | inactive: 0 | inactive: 0 | inactive: 0 |
| Nc1nc(N)c2nc(-c3cccc(O)c3)c(-c3cccc(O)c3)nc2n1 (10 µM) | inactive: 0 | inactive: 0 | inactive: 0 | inactive: 0 | inactive: 0 | inactive: 0 | inactive: 0 | inactive: 0 | inactive: 0 | inactive: 0 | inactive: 0 | inactive: 0 | inactive: 0 | inactive: 0 | inactive: 0 | inactive: 0 | inactive: 0 | inactive: 0 | inactive: 0 | inactive: 0 |
| Cc1cc(CSc2ccccc2C(=O)NCCNc2ccc(C(F)(F)F)cc2[N+](=O)[O-])on1 (10 µM) | inactive: 0 | inactive: 0 | inactive: 0 | inactive: 0 | inactive: 0 | inactive: 0 | inactive: 0 | inactive: 0 | inactive: 0 | inactive: 0 | inactive: 0 | inactive: 0 | inactive: 0 | inactive: 0 | inactive: 0 | inactive: 0 | inactive: 0 | inactive: 0 | inactive: 0 | inactive: 0 |
| O=c1cc(-c2ccccc2)oc2cc(O[C@@H]3O[C@H](CO[C@@H]4O[C@H](CO)[C@@H](O)[C@H](O)[C@H]4O)[C@@H](O)[C@H](O)[C@H]3O)c(O)c(O)c12 [Oroxin B] (10 µM) | inactive: 0 | inactive: 0 | inactive: 0 | inactive: 0 | inactive: 0 | inactive: 0 | inactive: 0 | inactive: 0 | inactive: 0 | inactive: 0 | inactive: 0 | inactive: 0 | inactive: 0 | inactive: 0 | inactive: 0 | inactive: 0 | inactive: 0 | inactive: 0 | inactive: 0 | inactive: 0 |
| C=CC(=O)Nc1cc(Nc2nccc(-c3cn(C)c4ccccc34)n2)c(OC)cc1OCCN(C)C [Rezivertinib] (2.5 µM) | inactive: 0 | inactive: 0 | inactive: 0 | inactive: 0 | inactive: 0 | inactive: 0 | inactive: 0 | inactive: 0 | inactive: 0 | inactive: 0 | inactive: 0 | inactive: 0 | inactive: 0 | inactive: 0 | inactive: 0 | inactive: 0 | inactive: 0 | inactive: 0 | inactive: 0 | inactive: 0 |
| COc1ccc(S(=O)(=O)Nc2cc(-c3c(O)ccc4ccccc34)c(O)c3ccccc23)cc1 (10 µM) | inactive: 0 | inactive: 0 | inactive: 0 | inactive: 0 | inactive: 0 | inactive: 0 | inactive: 0 | inactive: 0 | inactive: 0 | inactive: 0 | inactive: 0 | inactive: 0 | inactive: 0 | inactive: 0 | inactive: 0 | inactive: 0 | inactive: 0 | inactive: 0 | inactive: 0 | inactive: 0 |
| O=C(Nc1cc(Cl)cc2c1[nH]c1cnccc12)c1cccnc1 (10 µM) | inactive: 0 | inactive: 0 | inactive: 0 | inactive: 0 | inactive: 0 | inactive: 0 | inactive: 0 | inactive: 0 | inactive: 0 | inactive: 0 | inactive: 0 | inactive: 0 | inactive: 0 | inactive: 0 | inactive: 0 | inactive: 0 | inactive: 0 | inactive: 0 | inactive: 0 | inactive: 0 |
| COc1c(O)cc2oc(-c3ccc(O)cc3)cc(=O)c2c1O [Hispidulin] (10 µM) | inactive: 0 | inactive: 0 | inactive: 0 | inactive: 0 | inactive: 0 | inactive: 0 | inactive: 0 | inactive: 0 | inactive: 0 | inactive: 0 | inactive: 0 | inactive: 0 | inactive: 0 | inactive: 0 | inactive: 0 | inactive: 0 | inactive: 0 | inactive: 0 | inactive: 0 | inactive: 0 |
| CCN(CC)CCCC(C)Nc1nc(C)cc(Nc2ccc3nc(C)cc(N)c3c2)n1 (stereo not given) (10 µM) | inactive: 0 | inactive: 0 | inactive: 0 | inactive: 0 | inactive: 0 | inactive: 0 | inactive: 0 | inactive: 0 | inactive: 0 | inactive: 0 | inactive: 0 | inactive: 0 | inactive: 0 | inactive: 0 | inactive: 0 | inactive: 0 | inactive: 0 | inactive: 0 | inactive: 0 | inactive: 0 |
| Cc1c(C)c(NCC(=O)N(C)C2CCN(Cc3ccc(C(N)=O)cc3)CC2)c(C)c(C)c1N (10 µM) | inactive: 0 | inactive: 0 | inactive: 0 | inactive: 0 | inactive: 0 | inactive: 0 | inactive: 0 | inactive: 0 | inactive: 0 | inactive: 0 | inactive: 0 | inactive: 0 | inactive: 0 | inactive: 0 | inactive: 0 | inactive: 0 | inactive: 0 | inactive: 0 | inactive: 0 | inactive: 0 |
| O=c1c2c([nH]n1-c1nc3ccccc3s1)CCCC2 (10 µM) | inactive: 0 | inactive: 0 | inactive: 0 | inactive: 0 | inactive: 0 | inactive: 0 | inactive: 0 | inactive: 0 | inactive: 0 | inactive: 0 | inactive: 0 | inactive: 0 | inactive: 0 | inactive: 0 | inactive: 0 | inactive: 0 | inactive: 0 | inactive: 0 | inactive: 0 | inactive: 0 |
| O=C(c1cccc(Cl)c1F)N1CCN(Cc2cccc(Nc3nccs3)n2)CC1 (2.5 µM) | inactive: 0 | inactive: 0 | inactive: 0 | inactive: 0 | inactive: 0 | inactive: 0 | inactive: 0 | inactive: 0 | inactive: 0 | inactive: 0 | inactive: 0 | inactive: 0 | inactive: 0 | inactive: 0 | inactive: 0 | inactive: 0 | inactive: 0 | inactive: 0 | inactive: 0 | inactive: 0 |
| Cc1cccc(COc2cccc(/C=C3\C(=O)NN(c4ccccc4)C3=O)c2)c1 (10 µM) | inactive: 0 | inactive: 0 | inactive: 0 | inactive: 0 | inactive: 0 | inactive: 0 | inactive: 0 | inactive: 0 | inactive: 0 | inactive: 0 | inactive: 0 | inactive: 0 | inactive: 0 | inactive: 0 | inactive: 0 | inactive: 0 | inactive: 0 | inactive: 0 | inactive: 0 | inactive: 0 |
| Cc1cnc(NC(=O)c2cc(Oc3cnc(C(=O)N(C)C)nc3)c3cc(C)oc3c2)cn1 (10 µM) | inactive: 0 | inactive: 0 | inactive: 0 | inactive: 0 | inactive: 0 | inactive: 0 | inactive: 0 | inactive: 0 | inactive: 0 | inactive: 0 | inactive: 0 | inactive: 0 | inactive: 0 | inactive: 0 | inactive: 0 | inactive: 0 | inactive: 0 | inactive: 0 | inactive: 0 | inactive: 0 |
| CC1(N)CCN(c2cccnc2NC(=O)c2nc(-c3ncccc3C(F)(F)F)cnc2N)CC1 [Darovasertib] (10 µM) | inactive: 0 | inactive: 0 | inactive: 0 | inactive: 0 | inactive: 0 | inactive: 0 | inactive: 0 | inactive: 0 | inactive: 0 | inactive: 0 | inactive: 0 | inactive: 0 | inactive: 0 | inactive: 0 | inactive: 0 | inactive: 0 | inactive: 0 | inactive: 0 | inactive: 0 | inactive: 0 |
| CC(C)[C@H](CO)Nc1nc(Nc2cccc(Cl)c2)c2ncn(C(C)C)c2n1 [Purvalanol A] (10 µM) | inactive: 0 | inactive: 0 | inactive: 0 | inactive: 0 | inactive: 0 | inactive: 0 | inactive: 0 | inactive: 0 | inactive: 0 | inactive: 0 | inactive: 0 | inactive: 0 | inactive: 0 | inactive: 0 | inactive: 0 | inactive: 0 | inactive: 0 | inactive: 0 | inactive: 0 | inactive: 0 |
| C#Cc1cccc(Nc2ncnc3cc(OC)c(NC(=O)N4C[C@H]5CCN(C)[C@H]5C4)cc23)c1 [Theliatinib] (10 µM) | inactive: 0 | inactive: 0 | inactive: 0 | inactive: 0 | inactive: 0 | inactive: 0 | inactive: 0 | inactive: 0 | inactive: 0 | inactive: 0 | inactive: 0 | inactive: 0 | inactive: 0 | inactive: 0 | inactive: 0 | inactive: 0 | inactive: 0 | inactive: 0 | inactive: 0 | inactive: 0 |
| N#Cc1ccc(-c2cnc3[nH]cc(NC(=O)c4cccnc4)c3c2)cc1 (10 µM) | inactive: 0 | inactive: 0 | inactive: 0 | inactive: 0 | inactive: 0 | inactive: 0 | inactive: 0 | inactive: 0 | inactive: 0 | inactive: 0 | inactive: 0 | inactive: 0 | inactive: 0 | inactive: 0 | inactive: 0 | inactive: 0 | active: 1 | inactive: 0 | inactive: 0 | inactive: 0 |

Two of the compounds above, comma-delimited:
SMILES,kinase-Nluc reporter destabilization hit call (MAPK1),kinase-Nluc reporter destabilization hit call (MAPK4),kinase-Nluc reporter destabilization hit call (MAPKAPK2),kinase-Nluc reporter destabilization hit call (MKNK1),kinase-Nluc reporter destabilization hit call (NTRK2),kinase-Nluc reporter destabilization hit call (NTRK3),kinase-Nluc reporter destabilization hit call (PAK4),kinase-Nluc reporter destabilization hit call (PBK),kinase-Nluc reporter destabilization hit call (PDGFRB),kinase-Nluc reporter destabilization hit call (PDK1),kinase-Nluc reporter destabilization hit call (PDPK1),kinase-Nluc reporter destabilization hit call (PIK4CA),kinase-Nluc reporter destabilization hit call (PIK4CB),kinase-Nluc reporter destabilization hit call (PLK1),kinase-Nluc reporter destabilization hit call (PRKAA1),kinase-Nluc reporter destabilization hit call (PRKCA),kinase-Nluc reporter destabilization hit call (PTK2),kinase-Nluc reporter destabilization hit call (PTK2B),kinase-Nluc reporter destabilization hit call (RAF1),kinase-Nluc reporter destabilization hit call [1]
O=c1c2c([nH]n1-c1nc3ccccc3s1)CCCC2 (10 µM),inactive: 0,inactive: 0,inactive: 0,inactive: 0,inactive: 0,inactive: 0,inactive: 0,inactive: 0,inactive: 0,inactive: 0,inactive: 0,inactive: 0,inactive: 0,inactive: 0,inactive: 0,inactive: 0,inactive: 0,inactive: 0,inactive: 0,inactive: 0
C#Cc1cccc(Nc2ncnc3cc(OC)c(NC(=O)N4C[C@H]5CCN(C)[C@H]5C4)cc23)c1 [Theliatinib] (10 µM),inactive: 0,inactive: 0,inactive: 0,inactive: 0,inactive: 0,inactive: 0,inactive: 0,inactive: 0,inactive: 0,inactive: 0,inactive: 0,inactive: 0,inactive: 0,inactive: 0,inactive: 0,inactive: 0,inactive: 0,inactive: 0,inactive: 0,inactive: 0
